Several values for one entry are separate records, joined by “and”; a condition that tells them apart may be missing. Equal entries are not always repeated. The campaign covered roughly 580,000 compounds. About 6,100 (1.1%) were called active. The inconclusive results got no clear call from the source; some entries with a clear call stand among them for comparison. Calls come from the whole dose curve; as a rule, active = well fitted inhibition curve with a large enough effect; inconclusive = small, poorly fitted or top-dose-only effect, or another doubt; inactive = no such curve, though single readings can be large or run the other way. Potencies beside an inconclusive call are fits to weak or partial responses and may not hold up.
What follows are compounds tested against Polyunsaturated fatty acid lipoxygenase ALOX12 (Homo sapiens) (UniProt P18054) (assay: Primary qHTS assay for inhibitors of human arachidonate 12S-lipoxygenase (ALOX12): Round 2). Conditions: purified 12hLO, xylenol orange hydroperoxide absorbance; activity change, negative = inhibition: at 108 µM (top of the series).
Outline: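 Purified human 12hLO (150 nM final) in 25 mM Hepes, 0.01% Triton X-100, pH 7.0 was preincubated 15 min at room temperature with compound. Then 40 uM arachidonic acid was added, 30 min. Hydroperoxide was read by Fe-XO absorbance ratio 573/405 nm.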
% is set by controls: 0 for no effect and ±100 for the full control effect; potency is the fitted concentration of half-maximal effect.

Amino acid sequences for entries named in this document (tags omitted).
UniProt P18054, whole entry, looked up: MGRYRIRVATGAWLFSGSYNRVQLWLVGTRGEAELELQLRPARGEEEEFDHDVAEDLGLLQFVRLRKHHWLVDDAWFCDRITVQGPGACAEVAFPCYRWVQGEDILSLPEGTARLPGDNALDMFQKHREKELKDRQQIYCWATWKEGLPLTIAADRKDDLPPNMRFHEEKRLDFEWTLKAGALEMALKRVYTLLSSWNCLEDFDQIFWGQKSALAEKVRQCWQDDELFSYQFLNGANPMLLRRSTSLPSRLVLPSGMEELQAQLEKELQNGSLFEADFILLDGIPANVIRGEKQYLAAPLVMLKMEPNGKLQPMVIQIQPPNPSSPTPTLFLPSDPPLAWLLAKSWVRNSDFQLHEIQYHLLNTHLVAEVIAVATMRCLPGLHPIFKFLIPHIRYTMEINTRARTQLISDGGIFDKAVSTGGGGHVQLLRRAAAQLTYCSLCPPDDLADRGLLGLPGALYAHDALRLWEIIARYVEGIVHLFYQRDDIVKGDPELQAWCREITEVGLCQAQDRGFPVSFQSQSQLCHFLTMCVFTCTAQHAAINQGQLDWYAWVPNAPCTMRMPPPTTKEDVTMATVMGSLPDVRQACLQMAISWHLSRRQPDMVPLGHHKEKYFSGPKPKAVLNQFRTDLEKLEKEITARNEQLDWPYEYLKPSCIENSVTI

Compound | Potency | activity change, negative = inhibition
CCOC(=O)C1=C(C)OC(N)=C(C(=O)OC)C12C(=O)Nc1cc(Br)ccc12 (stereo not given) | inconclusive: 79.4 µM [inhibitor, single point] | 
O=C(NC[C@H]1C[C@@H]2CCN1C[C@@H]2CN1CCOCC1)Nc1ccsc1 | inactive | 
Nc1ccc(C2(c3ccc(N)cc3)c3ccccc3-c3ccccc32)cc1 | inactive | 
O=C(Cc1c(F)cccc1Cl)N1[C@H]2CC[C@@H]1c1cnc(-c3ccccc3)nc1C2 | inactive | 
CCCCNc1ccncc1S(=O)(=O)NC(=O)NC(C)C | inconclusive: 31.6 µM [inhibitor, partial curve, poor fit] | 
Cc1ccc(Cn2cccc(C(=O)Nc3nnc(C)s3)c2=O)cc1 | inconclusive: 79.4 µM [inhibitor, partial curve, poor fit] | 
C=CCN1C(=O)NC(=O)/C(=C/c2cnc(SC)nc2)C1=O | inconclusive: 50.1 µM [inhibitor, partial curve, poor fit] | 
CCc1ccccc1N1C(=O)/C(=C/c2ccc(N3CCN(C)CC3)o2)C(=O)NC1=S | inconclusive: 50.1 µM [inhibitor, partial curve, poor fit] | 
CC(C)CCOC(=O)c1c(N)n(CC2CCCO2)c2nc3ccccc3nc12 (stereo not given) | inactive | 
c1cncc(CNC2CCCC2)c1 | inconclusive: 50.1 µM [inhibitor, partial curve, poor fit] | 
O=C(O)C1=NOC2CN(CC3CCCC3)CC12 (stereo not given) |  | inactive: -21.3% [at 12.5 µM]
COc1ccccc1CNCCc1c[nH]c2ccccc12 | inconclusive: 0.631 µM [inhibitor, full curve, poor fit] | 
O=C(COc1ccccc1)N1CCN(CC2CC=CCC2)CC1 (stereo not given) | active: 0.631 µM | 
CN1CCN(C(=O)Cc2c[nH]c3ncc(-c4cccc(Cl)c4)cc23)CC1 | inconclusive: 79.4 µM [inhibitor, partial curve, poor fit] | 
CCOc1ccc(/C=C2/C(=O)NC(=O)N(CCc3ccc(F)cc3)C2=O)cc1 | inconclusive: 39.8 µM [inhibitor, partial curve] | 
CC(C)n1c(=O)c(C=Nc2cccc([N+](=O)[O-])c2)c(O)n(CCc2ccccc2)c1=O | inactive | 
CC(=O)OC(C)(C)/C=C/C(=O)C(C)(O)C1C(O)CC2(C)C3CC=C4C(CC(O)C(=O)C4(C)C)C3(C)C(=O)CC12C (stereo not given) | inactive | 
O=C1CO[C@H]2CN(Cc3ncc[nH]3)C[C@H]2N1Cc1ccncc1 | inactive | 
CN(C)c1ccc(/C=C/c2cc[n+](C)c3ccccc23)cc1 | inconclusive: 44.7 µM [inhibitor, partial curve, poor fit] | 
COc1ccc(/C=C2/C(=O)NC(=S)N(C3CC3)C2=O)cc1CN1C(=O)c2ccccc2C1=O | inconclusive: 39.8 µM [inhibitor, partial curve, poor fit] | 
O=c1[nH]c(=S)n(Cc2ccc(F)cc2)c(O)c1C=NCCCn1ccnc1 | inactive | 
Cc1ccc(NC(=O)CN2C(=O)CN=C(c3ccccc3)c3cc(Cl)ccc32)cc1 | inconclusive: 79.4 µM [inhibitor, partial curve, poor fit] | 

Compound | Potency | activity change, negative = inhibition
Cc1cnc(CCN)n1C1CC1 | inactive | 
CN1C2CCC1/C(=C/c1ccccn1)C(=O)/C2=C\c1ccccn1 | inactive | 
Cc1ccc(NC(=O)N(Cc2ccc3c(c2)OCO3)C2CCN(Cc3ccccc3)CC2)cc1Cl | active: 44.7 µM | 
O=C1NC(=O)C(=Cc2cccs2)C(=O)N1 | inactive | 
CCOC(=O)c1ccc(NC(=O)c2c(O)[nH]c(=O)[nH]c2=O)cc1 | inconclusive: 6.31 µM [inhibitor, full curve] | 
CC(=O)C1CCC2C3CCC4CC(O)CCC4(C)C3C(O)CC12C (stereo not given) | inconclusive: 89.1 µM [inhibitor, single point] | 
COc1ccc(-n2nnnc2C(c2cccc3ccccc23)N2CCC(n3c(=O)[nH]c4ccccc43)CC2)cc1 (stereo not given) | inconclusive: 6.31 µM [inhibitor, full curve, poor fit] | 
O=C1NC(=O)N(c2ccccc2)C(=O)/C1=C\C=C\c1ccccc1 | active: 25.1 µM | 
COc1cccc(C(=O)C2CCCN(Cc3cccc4c3OCO4)C2)c1 (stereo not given) | inactive | 
O=c1ccc(-c2cccs2)c2n1C[C@H]1C[C@@H]2CN(S(=O)(=O)c2cccs2)C1 | inconclusive: 56.2 µM [inhibitor, partial curve, poor fit] | 
CN1C[C@H](CNC(=O)OCc2ccccc2)C[C@H]2c3cccc4c3c(cn4C)C[C@@H]21 | inconclusive: 89.1 µM [inhibitor, partial curve, poor fit] | 
COc1ccc(N/N=C/c2c(O)n(-c3cccc(C)c3)c(=O)[nH]c2=O)cc1 | inconclusive: 50.1 µM [inhibitor, partial curve, poor fit] | 
O=[N+]([O-])c1ccc(NCc2ccccc2)c2nonc12 | inactive | 
COP(=S)(OC)SCn1nnc2ccccc2c1=O | inconclusive: 31.6 µM [inhibitor, partial curve, poor fit] | 
O=C1C=C2C=C[C@H]3C[C@]2(O1)[C@@H]1CCCCN13 | inconclusive: 89.1 µM [inhibitor, single point] | 
CCCCOCCCn1c(N)c(C(=O)OCCOC)c2nc3ccccc3nc21 | inconclusive: 56.2 µM [inhibitor, partial curve, poor fit] | 
C[C@@H]1[C@@H](C(=O)C[C@H]2O[C@@H]3O[C@]4(C)CC[C@@H]5[C@H](C)CC[C@@H]([C@H]2C)[C@@]35OO4)O[C@@H]2O[C@]3(C)CC[C@H]4[C@H](C)CC[C@@H]1[C@@]24OO3 | inconclusive: 2.43 µM [inhibitor, partial curve, poor fit] | 
CC(C)[N+](C)(CCC(C(N)=O)(c1ccccc1)c1ccccc1)C(C)C | inconclusive: 35.5 µM [inhibitor, partial curve, poor fit] | 
C/C=C1/C[N+]2(C)CCC34C(=C(C=O)[C@H]1C[C@@H]32)Nc1ccccc14 (stereo not given in full) | inconclusive: 31.6 µM [inhibitor, partial curve] | 
O=C(O)CCn1cc(C=C2C(=O)NC(=O)NC2=O)c(-c2ccc(Br)cc2)n1 | inconclusive: 50.1 µM [inhibitor, partial curve, poor fit] | 
O=C1OC2(c3cc(Br)c(O)cc3Oc3c2cc(Br)c(O)[c]3[Hg])c2ccccc21 (stereo not given) | inconclusive: 1.78 µM [inhibitor, full curve, poor fit] | 
CC(C)c1ccc(N2C(=O)NC(=O)/C(=C\C=C\c3ccco3)C2=O)cc1 | active: 10 µM | 

Compound | Potency | activity change, negative = inhibition
CCOP(=S)(OCC)SCSc1ccc(Cl)cc1 | inconclusive: 44.7 µM [inhibitor, partial curve, poor fit] | 
CC(=O)c1ccc(NC(=O)OC[C@H]2C[C@@H]3CCN2C[C@@H]3c2cc(C3CCCC3)nc(-c3ccncc3)n2)cc1 | inactive | 
Cc1ccccc1C(O)(Cc1ccccc1)C1CN2CCC1CC2 (stereo not given) | inactive and inconclusive: 79.4 µM [inhibitor, single point] | 
O=S(=O)(NC[C@H]1C[C@@H]2CCN1C[C@@H]2CN1CCCCC1)c1ccc(Cl)cc1 | inconclusive: 31.6 µM [inhibitor, full curve] | 
Cc1ccccc1-c1ccc2n1Cc1cnnn1-c1ccccc1-2 | inactive | 
O=Cc1c(C(=O)O)n(Cc2ccccc2F)c2ccccc12 | inconclusive: 100 µM [inhibitor, partial curve, poor fit] | 
Cc1cccc(-n2c(/C=C/c3ccco3)nc3ccccc3c2=O)c1 | active: 25.1 µM | 
COCC1(CO)C(=O)C2CCN1CC2 (stereo not given) | inconclusive: 13.7 µM [inhibitor, single point] | 
COc1ccc(CCNCc2ccc3c(c2)n(C)c(=O)n3C)cc1 | inactive | 
O=C(COc1ccc2ccccc2c1)N1CCN(Cc2c[nH]c3ccccc23)CC1 | inconclusive: 3.55 µM [inhibitor, full curve, poor fit] | 
CCC(C)n1c(O)c(/C=N/Nc2nc3c(c(=O)n(C)c(=O)n3C)n2C)c(=O)[nH]c1=S (stereo not given) | inconclusive: 112 µM [inhibitor, single point] | 
CCCS(=O)(=O)N1C[C@@H]2C[C@H](C1)c1c(-c3ccc(Cl)cc3)ccc(=O)n1C2 | inconclusive: 25.1 µM [inhibitor, full curve] | 
CCCn1c(C)c(C(=O)NCC2CC2)c2cc(OC)ccc21 | inactive | 
CN1CC(C(=O)c2cccc(C(F)(F)F)c2)C(c2ccc(Cl)cc2)C1 (stereo not given) | inconclusive: 112 µM [inhibitor, single point] | 
CC[C@]12C=CCN3CCC4(c5cc(Br)c(OC)cc5N(C)C4[C@@](O)(C(=O)OC)[C@@H]1OC(C)=O)C32 (stereo not given in full) | inconclusive: 44.7 µM [inhibitor, partial curve, poor fit] | 
CCCN1CCC[C@@H]2Cc3nc(N)ncc3C[C@H]21 | inconclusive: 12.6 µM [inhibitor, full curve, poor fit] | 
O=C1NCN(c2ccccc2)C12CCN(C(c1ccccc1OC(F)(F)F)c1nnnn1C1CCCCC1)CC2 (stereo not given) | inconclusive: 112 µM [inhibitor, single point] | 
CCCCCCN1CCN(c2ccccc2Cl)CC1 | inconclusive: 0.794 µM [inhibitor, full curve, poor fit] | 
Cc1ccccc1CCNCc1ccc(Br)cc1 | inconclusive: 44.7 µM [inhibitor, partial curve, poor fit] | 
N#Cc1cc2c(nc1SCC(=O)Nc1ccc(F)c(Cl)c1)C1CCN2CC1 | inactive | 
COc1ccc(OC)c(S(=O)(=O)N2[C@H]3CC[C@@H]2c2cnc(C)nc2C3)c1 | inactive | 

Reformatted as tab-separated lines: part of the list above
Compound	Potency	activity change, negative = inhibition
O=c1[nH]c(=S)n(Cc2ccc(F)cc2)c(O)c1C=NCCCn1ccnc1	inactive	
CCOC(=O)c1ccc(NC(=O)c2c(O)[nH]c(=O)[nH]c2=O)cc1	inconclusive: 6.31 µM [inhibitor, full curve]	
C/C=C1/C[N+]2(C)CCC34C(=C(C=O)[C@H]1C[C@@H]32)Nc1ccccc14 (stereo not given in full)	inconclusive: 31.6 µM [inhibitor, partial curve]	

— PubChem BioAssay AID1671190 (National Center for Advancing Translational Sciences (NCATS), 2021)
